Measurements as given in PubChem BioAssay (NCATS).
Inconclusive means that the source gave no clear call. Such entries were picked first, then a sample of the others. Potencies of inconclusive entries are doubtful fits and often do not repeat. The source made the active and inactive calls. Calls follow the shape of the full dose curve.

Experiment: VSVG counterscreen qHTS to identify inhibitors of SARS-CoV-2 cell entry (AID 1645847); also: nearly all actives have a fitted effect of over 65% in size
Conditions: VSV-G pseudotyped particle entry, luciferase; series mostly up to 57.2 µM
How it was run: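 Expi293F/hACE2 cells, overnight plating; cpd 1 h, 37C/5% CO2; + VSV-G PP (MLV pseudotyping), 48 h; supernatant removed, Bright-Glo luciferase read. Norm: VSV-G PP and bald PP wells.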
Potency is read from the fitted curve at half-maximal effect.

Row | SMILES | Potency
1 | Nc1nc(-c2nn(Cc3ccccc3F)c3ncccc23)ncc1C1CC1 | active: 12.1 µM
2 | COc1ncc(Nc2ncc(C(C)N3CCN(S(C)(=O)=O)CC3)cc2-c2nc(C)nc(N)n2)cc1F (stereo not given) | inconclusive: 1.36 µM [inhibitor, full curve]
3 | CC(=O)c1ccc2c(c1)c1cc(C(C)=O)ccc1n2CCNC(C)C | active: 0.136 µM
4 | C=CC(=O)N1CC[C@@H](Oc2nc(Nc3ccc(N4CCC(N5CCN(C)CC5)CC4)cc3)c(C(N)=O)nc2CC)C1 | active: 5.27 µM
5 | C=CC(=O)Nc1cccc(Nc2nc(Nc3ccc(OCCOC)cc3)ncc2F)c1 | active: 4.82 µM
